Consider one substance from publication PMC7206130.

Chains of the proteins cited; added tags and fusions are not shown. Residues count along the entry.
UniProt P17931: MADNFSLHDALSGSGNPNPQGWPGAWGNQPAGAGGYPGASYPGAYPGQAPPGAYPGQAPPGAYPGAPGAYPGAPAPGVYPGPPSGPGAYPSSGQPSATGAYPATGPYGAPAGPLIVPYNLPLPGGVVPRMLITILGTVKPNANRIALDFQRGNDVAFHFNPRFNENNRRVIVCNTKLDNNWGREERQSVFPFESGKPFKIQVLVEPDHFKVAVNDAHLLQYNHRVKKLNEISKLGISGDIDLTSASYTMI
UniProt O00206, residues 24-631: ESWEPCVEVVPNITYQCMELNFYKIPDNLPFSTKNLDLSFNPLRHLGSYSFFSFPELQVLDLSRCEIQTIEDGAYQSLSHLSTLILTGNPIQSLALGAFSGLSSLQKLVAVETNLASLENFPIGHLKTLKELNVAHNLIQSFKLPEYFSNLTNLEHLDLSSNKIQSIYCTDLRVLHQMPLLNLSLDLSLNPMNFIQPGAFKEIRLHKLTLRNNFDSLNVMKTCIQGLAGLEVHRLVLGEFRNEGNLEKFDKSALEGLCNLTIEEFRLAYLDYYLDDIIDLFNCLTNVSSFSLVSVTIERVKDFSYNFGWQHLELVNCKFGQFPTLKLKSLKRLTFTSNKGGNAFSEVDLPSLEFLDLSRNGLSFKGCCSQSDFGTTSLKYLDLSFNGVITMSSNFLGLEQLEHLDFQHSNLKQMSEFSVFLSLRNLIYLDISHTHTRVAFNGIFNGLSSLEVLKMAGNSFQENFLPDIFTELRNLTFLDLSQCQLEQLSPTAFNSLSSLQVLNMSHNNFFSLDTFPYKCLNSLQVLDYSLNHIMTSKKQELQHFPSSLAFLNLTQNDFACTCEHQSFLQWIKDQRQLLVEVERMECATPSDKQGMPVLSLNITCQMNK

The target of the experiment is recombinant human Gal-3 protein (human) (UniProt P17931). The experiment can be described thus: co-IP; recombinant human Gal-3 (0.6 μg) mixed with recombinant human TLR4 or TREM2 (0.6 μg each) in RIPA buffer; precipitated with rat anti-Gal-3 antibody at 4 °C overnight, protein G Mag Sepharose Xtra beads; rat IgG as control; both purified.

No constants are given. Whether binding was seen depends on the method and setting. Some binding calls cover weakened binding; strength is not graded here.

With “recombinant human TLR4 protein (from UniProt O00206 24-631) (receptor)”, the binding entry is “binds”.
